## Screening data, single-dose tests

By UniProt entry, the sequences of proteins in these tests, tags left out. Residues count along the entry.
UniProt A4I591, 1-473: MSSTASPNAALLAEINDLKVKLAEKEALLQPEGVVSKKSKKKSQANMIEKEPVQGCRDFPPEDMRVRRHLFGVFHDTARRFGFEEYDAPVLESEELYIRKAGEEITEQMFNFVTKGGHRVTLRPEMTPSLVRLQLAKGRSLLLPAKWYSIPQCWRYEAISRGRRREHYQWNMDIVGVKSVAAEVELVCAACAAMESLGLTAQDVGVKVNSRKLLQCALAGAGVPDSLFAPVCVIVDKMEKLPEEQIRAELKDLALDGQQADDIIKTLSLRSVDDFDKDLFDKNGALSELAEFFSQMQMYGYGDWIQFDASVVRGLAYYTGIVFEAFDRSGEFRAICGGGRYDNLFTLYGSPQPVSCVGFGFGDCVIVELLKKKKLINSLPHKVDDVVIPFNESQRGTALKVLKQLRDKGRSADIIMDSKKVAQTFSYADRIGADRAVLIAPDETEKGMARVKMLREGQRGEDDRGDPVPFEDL

Source: ChEMBL document CHEMBL3988442, “University of Dundee, Small-Polar-MMV Screening Library” (2021).

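Histidine-tRNA ligase, Leishmania infantum (UniProt A4I591). Enzyme assay of histidyl-tRNA synthetase; the read-out is not stated. Tested at 30 µM. Higher reads as stronger inhibition (inferred: compounds with an IC50 in retests scored well above the rest). The assay is labelled LdHisRS but filed under L. infantum. About 69,000 compounds were tested under these conditions; 0.6% (about 410) showed 50% or more at least once.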

Each number is a percent effect as filed.
The controls that fix the scale are not given in the record; negative values are as filed.
Compounds were drawn at random from those tested, without regard to their results.

{"smiles": "COCCCNC(=O)C1(NC(=O)c2ccc3[nH]ncc3c2)CCCC1", "percent effect": 19.18}
{"smiles": "Cc1cnn(CC2CCCN2c2ncnc3ccsc23)c1", "stereo": "centres unmarked", "percent effect": 11.01}
{"smiles": "O=C(NCCCc1ccco1)c1cnc(N2CCOCC2)nc1", "percent effect": 21.05}
{"smiles": "Cc1ccc(CNCc2cccc(NC(=O)CCN3CCOCC3)c2)s1", "percent effect": 1.036}
{"smiles": "CN(CCN1CCCC1=O)S(=O)(=O)CC1CCCC1", "percent effect": 8.547}
{"smiles": "Cc1ccc(CC2CCCN(S(C)(=O)=O)C2)nc1", "stereo": "centres unmarked", "percent effect": 13.04}
{"smiles": "CN(C(=O)c1cccc(C(=O)NCC(F)(F)F)c1)c1ccccc1", "percent effect": -8.491}
{"smiles": "Cc1ccc(-c2nnc(CN3CCOC(Cn4cncn4)C3)o2)cc1", "stereo": "centres unmarked", "percent effect": 3.39}
{"smiles": "Cc1ncc(CN(C)CC(O)c2ccc(OC(F)(F)F)cc2)s1", "stereo": "centres unmarked", "percent effect": -2.857}
{"smiles": "COCC1CC2(CCN(C(=O)c3occc3C)CC2)CN1C(C)C", "stereo": "centres unmarked", "percent effect": 1.37}
{"smiles": "CN(C)CCC1CCCCN1Cc1cnc(-c2ccccn2)nc1", "stereo": "centres unmarked", "percent effect": 7.527}
{"smiles": "O=C(CSc1ccc(F)c(F)c1)NS(=O)(=O)c1ccc2c(c1)OCCO2", "percent effect": -6.383}
{"smiles": "c1cnc(-c2nc(CNCCn3cccn3)cs2)nc1", "percent effect": 5.6}
{"smiles": "COc1cc2c(cc1OC)CN(C(=O)Cn1nc(C)cc1C)CC2", "percent effect": 27.42}
{"smiles": "Cc1nn(C)c2c(=O)n(CC(=O)NCC3CCCO3)ccc12", "stereo": "centres unmarked", "percent effect": 7.609}
{"smiles": "CCc1nnc(CNCC2CCCN2c2cccnn2)o1", "stereo": "centres unmarked", "percent effect": 9.524}
{"smiles": "CCC(C(=O)NC(C)(C)C)n1ccc2ncccc2c1=O", "stereo": "centres unmarked", "percent effect": 18.99}
{"smiles": "CC(NC(=O)Nc1cccnc1N1CCOCC1)c1ccccn1", "stereo": "centres unmarked", "percent effect": 8.333}
{"smiles": "CN(Cc1nnc2n1CCC2)C(=O)NCCc1ccc2c(c1)OCO2", "percent effect": 19.05}
{"smiles": "CCc1nccn1-c1cncc(C2CCCN2Cc2ccccn2)n1", "stereo": "centres unmarked", "percent effect": 13.04}
{"smiles": "CCC(=O)N(CCN(C)C)Cc1ccc(F)c(F)c1", "percent effect": 6.522}
{"smiles": "Cc1cc(N(Cc2ccccn2)C2CC2)n2nc(C(F)(F)F)nc2n1", "percent effect": 17.14}
{"smiles": "Cc1cc(O)n(-c2ccccc2Cl)c(=O)c1C#N", "percent effect": 19.64}
{"smiles": "CCOC(=O)c1n[nH]cc1-c1cncn1CCn1nc(C)c(Cl)c1C", "percent effect": 6.207}
{"smiles": "CCC(=O)N1CCC2(CC1)CC(CC(=O)N(C)C)c1ccc(F)cc12", "stereo": "centres unmarked", "percent effect": 11.88}
{"smiles": "CS(=O)(=O)Cc1nc(CN2CCCc3sccc3C2)cs1", "percent effect": 12.82}
{"smiles": "Cc1noc(CS(=O)(=O)c2cc(F)ccc2F)n1", "percent effect": 17.05}
{"smiles": "CCc1csc(C2CCCN(C(=O)c3cnn(CC)c3)C2)n1", "stereo": "centres unmarked", "percent effect": -2.857}
{"smiles": "Cc1nn(C)c(C)c1CCC(=O)Nc1nnc(C2CC2)s1", "percent effect": 14.71}
{"smiles": "Cc1cn2c(n1)CCC(NC(=O)c1cc[nH]n1)C2", "stereo": "centres unmarked", "percent effect": 6.897}
{"smiles": "O=C1CC(c2ccccc2C(F)(F)F)c2sc(N3CCOCC3)nc2N1", "stereo": "centres unmarked", "percent effect": 5}
{"smiles": "Cc1noc(-c2ccc(N3CCC[C@H]3CO)nc2)n1", "percent effect": 13.89}
{"smiles": "CCC(C(=O)NC)N(c1cccc(C)c1)S(C)(=O)=O", "stereo": "centres unmarked", "percent effect": 8.738}
{"smiles": "CCc1ccc(S(=O)(=O)Nc2cc(C(=O)O)ccc2F)s1", "percent effect": 20.18}
{"smiles": "CC(C)(CCS(C)(=O)=O)CNC(=O)NC1CCCCC1(C)C", "stereo": "centres unmarked", "percent effect": -1.099}
{"smiles": "Cc1cc(=O)[nH]c(=O)n1COCc1ccccc1", "percent effect": 19.57}
{"smiles": "c1cc(-c2n[nH]cc2-c2ccnc(N3CCCC3)n2)ccn1", "percent effect": 11.43}
{"smiles": "CNC(=O)[C@@]12CCO[C@@H]1CCN(S(=O)(=O)c1ccc(C)cc1)C2", "percent effect": -5}
{"smiles": "O=C(COc1ccc2c(c1)CCC2)N1CCCC(n2cccn2)C1", "stereo": "centres unmarked", "percent effect": 6.612}
{"smiles": "O=C(c1cccc(OCc2cscn2)c1)N1CCOCC1", "percent effect": 15.74}
{"smiles": "O=C1NCC2(CCCN(C(=O)c3ccc4c(c3)CCCO4)CC2)O1", "stereo": "centres unmarked", "percent effect": 17.95}
{"smiles": "CC(C)CN1CCC2(CC(C(=O)NCc3cccnc3)=NO2)C1", "stereo": "centres unmarked", "percent effect": 22.86}

2 of the entries, repeated:

| SMILES | percent effect |
|---|---|
| `O=C(COc1ccc2c(c1)CCC2)N1CCCC(n2cccn2)C1` (centres unmarked) | 6.612 |
| `O=C(CSc1ccc(F)c(F)c1)NS(=O)(=O)c1ccc2c(c1)OCCO2` | -6.383 |